Some of the results follow.

The chains behind the UniProt entries cited, without tags or fusion partners. Where a name states a change or a piece, a line headed by the entry shows the natural chain unless it says otherwise.
UniProt Q9UHG3: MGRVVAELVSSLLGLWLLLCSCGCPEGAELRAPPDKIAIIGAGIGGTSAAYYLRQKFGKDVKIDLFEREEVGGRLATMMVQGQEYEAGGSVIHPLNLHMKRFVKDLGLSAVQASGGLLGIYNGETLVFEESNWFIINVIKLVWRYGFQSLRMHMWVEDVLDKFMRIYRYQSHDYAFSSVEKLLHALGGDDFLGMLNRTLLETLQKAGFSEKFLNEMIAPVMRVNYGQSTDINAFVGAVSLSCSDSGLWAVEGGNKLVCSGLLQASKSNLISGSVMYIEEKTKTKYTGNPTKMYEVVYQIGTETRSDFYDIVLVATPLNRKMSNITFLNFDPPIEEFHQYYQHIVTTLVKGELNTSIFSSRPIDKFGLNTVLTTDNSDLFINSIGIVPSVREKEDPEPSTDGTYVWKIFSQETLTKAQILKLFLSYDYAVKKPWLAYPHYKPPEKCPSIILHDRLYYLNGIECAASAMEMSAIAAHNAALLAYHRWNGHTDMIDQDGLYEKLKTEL
UniProt O14737: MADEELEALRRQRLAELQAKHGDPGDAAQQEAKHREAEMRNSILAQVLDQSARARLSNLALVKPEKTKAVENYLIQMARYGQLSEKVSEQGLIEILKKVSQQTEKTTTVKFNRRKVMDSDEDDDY
UniProt Q9BTK6, whole entry, looked up: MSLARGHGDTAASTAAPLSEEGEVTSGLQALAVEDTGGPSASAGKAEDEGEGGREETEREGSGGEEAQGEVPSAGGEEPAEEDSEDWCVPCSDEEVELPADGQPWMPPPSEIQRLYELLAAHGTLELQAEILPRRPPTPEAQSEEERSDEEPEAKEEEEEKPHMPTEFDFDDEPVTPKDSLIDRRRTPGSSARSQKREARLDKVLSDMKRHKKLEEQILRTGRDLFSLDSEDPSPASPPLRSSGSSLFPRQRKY
UniProt Q14690: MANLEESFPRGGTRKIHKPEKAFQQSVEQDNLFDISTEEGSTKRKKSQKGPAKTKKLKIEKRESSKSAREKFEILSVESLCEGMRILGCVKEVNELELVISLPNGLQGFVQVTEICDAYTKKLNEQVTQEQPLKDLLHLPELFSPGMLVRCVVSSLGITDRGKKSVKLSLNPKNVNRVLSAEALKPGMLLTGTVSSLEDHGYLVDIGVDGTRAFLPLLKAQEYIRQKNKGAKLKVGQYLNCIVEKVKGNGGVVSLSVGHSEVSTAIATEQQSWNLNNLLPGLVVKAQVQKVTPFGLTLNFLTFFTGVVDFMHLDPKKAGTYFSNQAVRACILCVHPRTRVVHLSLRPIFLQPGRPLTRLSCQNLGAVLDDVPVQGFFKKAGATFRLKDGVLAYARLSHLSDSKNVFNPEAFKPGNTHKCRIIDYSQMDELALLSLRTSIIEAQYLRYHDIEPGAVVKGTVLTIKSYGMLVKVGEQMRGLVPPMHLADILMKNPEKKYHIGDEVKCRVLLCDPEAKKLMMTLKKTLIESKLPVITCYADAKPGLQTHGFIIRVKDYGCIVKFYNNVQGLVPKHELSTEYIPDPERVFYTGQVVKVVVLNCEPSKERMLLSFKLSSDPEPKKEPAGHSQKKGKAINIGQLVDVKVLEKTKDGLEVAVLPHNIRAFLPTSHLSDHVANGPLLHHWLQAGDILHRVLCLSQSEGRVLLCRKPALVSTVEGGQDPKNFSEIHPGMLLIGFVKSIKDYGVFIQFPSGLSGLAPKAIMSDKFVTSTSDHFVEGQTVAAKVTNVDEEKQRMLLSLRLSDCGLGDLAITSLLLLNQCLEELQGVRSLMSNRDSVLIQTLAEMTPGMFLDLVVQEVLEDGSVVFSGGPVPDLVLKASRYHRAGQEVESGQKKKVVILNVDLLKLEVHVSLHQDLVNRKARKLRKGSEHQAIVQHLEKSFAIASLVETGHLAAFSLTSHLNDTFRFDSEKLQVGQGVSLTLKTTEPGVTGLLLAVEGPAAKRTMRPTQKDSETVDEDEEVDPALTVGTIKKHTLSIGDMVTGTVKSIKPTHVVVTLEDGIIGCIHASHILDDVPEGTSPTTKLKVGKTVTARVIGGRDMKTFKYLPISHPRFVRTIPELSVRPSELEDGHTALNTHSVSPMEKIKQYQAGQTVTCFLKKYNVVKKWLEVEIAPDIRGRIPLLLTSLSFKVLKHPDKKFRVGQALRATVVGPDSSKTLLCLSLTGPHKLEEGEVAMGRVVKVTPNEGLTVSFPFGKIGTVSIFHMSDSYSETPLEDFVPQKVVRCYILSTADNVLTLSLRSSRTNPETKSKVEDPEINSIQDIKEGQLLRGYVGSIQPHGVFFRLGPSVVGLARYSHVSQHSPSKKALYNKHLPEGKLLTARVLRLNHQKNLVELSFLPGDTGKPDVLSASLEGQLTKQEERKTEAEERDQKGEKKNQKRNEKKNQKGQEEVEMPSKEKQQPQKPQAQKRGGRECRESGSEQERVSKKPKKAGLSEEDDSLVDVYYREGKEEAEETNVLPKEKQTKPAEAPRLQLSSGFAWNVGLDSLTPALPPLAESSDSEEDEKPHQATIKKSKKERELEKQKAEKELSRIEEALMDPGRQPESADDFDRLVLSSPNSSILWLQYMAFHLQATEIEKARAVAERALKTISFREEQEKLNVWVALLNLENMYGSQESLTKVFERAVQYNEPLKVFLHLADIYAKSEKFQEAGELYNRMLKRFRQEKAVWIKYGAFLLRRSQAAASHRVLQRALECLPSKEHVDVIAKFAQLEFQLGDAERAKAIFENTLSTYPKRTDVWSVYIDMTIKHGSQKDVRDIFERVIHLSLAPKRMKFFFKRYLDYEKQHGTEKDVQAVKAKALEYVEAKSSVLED
UniProt Q9HBH1: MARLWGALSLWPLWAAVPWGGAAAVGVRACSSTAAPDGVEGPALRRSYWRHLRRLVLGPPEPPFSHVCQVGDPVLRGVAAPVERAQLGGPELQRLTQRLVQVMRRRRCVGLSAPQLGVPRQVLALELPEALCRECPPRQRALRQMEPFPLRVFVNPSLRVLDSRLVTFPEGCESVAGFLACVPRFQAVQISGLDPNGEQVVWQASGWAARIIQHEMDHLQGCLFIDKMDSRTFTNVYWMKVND
UniProt P11177, whole entry, looked up: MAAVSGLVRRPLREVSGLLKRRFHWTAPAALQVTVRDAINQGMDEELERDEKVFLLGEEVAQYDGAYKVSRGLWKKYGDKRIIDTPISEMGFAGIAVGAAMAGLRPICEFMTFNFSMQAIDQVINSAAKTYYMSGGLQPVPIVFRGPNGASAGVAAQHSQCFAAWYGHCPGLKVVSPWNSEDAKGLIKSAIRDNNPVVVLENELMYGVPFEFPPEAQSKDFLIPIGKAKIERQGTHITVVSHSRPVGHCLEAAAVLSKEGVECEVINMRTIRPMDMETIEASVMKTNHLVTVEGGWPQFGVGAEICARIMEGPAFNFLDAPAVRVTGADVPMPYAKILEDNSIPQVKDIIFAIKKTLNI
UniProt Q13177, whole entry, looked up: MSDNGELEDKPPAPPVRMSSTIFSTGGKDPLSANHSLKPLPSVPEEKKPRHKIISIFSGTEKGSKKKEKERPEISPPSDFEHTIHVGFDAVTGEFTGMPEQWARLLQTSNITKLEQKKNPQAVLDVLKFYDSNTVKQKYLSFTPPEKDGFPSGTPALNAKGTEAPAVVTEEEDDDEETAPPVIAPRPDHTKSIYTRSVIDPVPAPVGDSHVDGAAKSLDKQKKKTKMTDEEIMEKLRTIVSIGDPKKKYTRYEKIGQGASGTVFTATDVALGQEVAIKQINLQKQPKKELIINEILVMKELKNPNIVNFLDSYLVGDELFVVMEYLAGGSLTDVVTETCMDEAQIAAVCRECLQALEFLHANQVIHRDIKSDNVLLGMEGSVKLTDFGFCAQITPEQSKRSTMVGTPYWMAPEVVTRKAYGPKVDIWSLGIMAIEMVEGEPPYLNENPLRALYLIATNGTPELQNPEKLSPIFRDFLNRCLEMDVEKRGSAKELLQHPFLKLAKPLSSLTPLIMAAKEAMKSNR
UniProt O75381, whole entry, looked up: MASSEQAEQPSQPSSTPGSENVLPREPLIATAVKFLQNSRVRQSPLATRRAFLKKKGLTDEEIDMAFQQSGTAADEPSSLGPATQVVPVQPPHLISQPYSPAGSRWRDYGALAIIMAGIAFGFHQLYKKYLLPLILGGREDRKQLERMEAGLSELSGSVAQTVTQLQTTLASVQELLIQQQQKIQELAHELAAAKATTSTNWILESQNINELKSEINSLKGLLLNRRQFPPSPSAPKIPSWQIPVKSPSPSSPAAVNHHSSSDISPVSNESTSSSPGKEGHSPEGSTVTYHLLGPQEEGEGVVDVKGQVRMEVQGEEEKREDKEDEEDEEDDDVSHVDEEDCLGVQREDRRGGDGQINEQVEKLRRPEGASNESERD
UniProt Q8NBP7, whole entry, looked up: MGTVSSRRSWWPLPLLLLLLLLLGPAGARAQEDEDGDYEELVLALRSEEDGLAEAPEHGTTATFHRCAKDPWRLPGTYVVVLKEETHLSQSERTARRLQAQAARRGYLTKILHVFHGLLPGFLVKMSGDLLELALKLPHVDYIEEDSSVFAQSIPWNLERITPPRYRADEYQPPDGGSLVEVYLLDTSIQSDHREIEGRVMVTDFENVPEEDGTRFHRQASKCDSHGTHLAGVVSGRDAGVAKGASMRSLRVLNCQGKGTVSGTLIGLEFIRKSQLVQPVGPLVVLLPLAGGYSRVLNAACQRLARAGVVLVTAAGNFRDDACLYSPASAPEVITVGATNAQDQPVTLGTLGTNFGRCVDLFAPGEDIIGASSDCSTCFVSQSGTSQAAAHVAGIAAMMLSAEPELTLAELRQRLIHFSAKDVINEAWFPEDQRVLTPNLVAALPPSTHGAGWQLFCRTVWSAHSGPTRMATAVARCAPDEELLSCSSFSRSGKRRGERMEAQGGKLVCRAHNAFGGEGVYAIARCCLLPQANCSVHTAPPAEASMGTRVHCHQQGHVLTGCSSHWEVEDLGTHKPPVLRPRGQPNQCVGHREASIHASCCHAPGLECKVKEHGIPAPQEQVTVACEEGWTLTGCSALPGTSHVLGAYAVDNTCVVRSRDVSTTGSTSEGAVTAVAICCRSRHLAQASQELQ
UniProt Q13310, whole entry, looked up: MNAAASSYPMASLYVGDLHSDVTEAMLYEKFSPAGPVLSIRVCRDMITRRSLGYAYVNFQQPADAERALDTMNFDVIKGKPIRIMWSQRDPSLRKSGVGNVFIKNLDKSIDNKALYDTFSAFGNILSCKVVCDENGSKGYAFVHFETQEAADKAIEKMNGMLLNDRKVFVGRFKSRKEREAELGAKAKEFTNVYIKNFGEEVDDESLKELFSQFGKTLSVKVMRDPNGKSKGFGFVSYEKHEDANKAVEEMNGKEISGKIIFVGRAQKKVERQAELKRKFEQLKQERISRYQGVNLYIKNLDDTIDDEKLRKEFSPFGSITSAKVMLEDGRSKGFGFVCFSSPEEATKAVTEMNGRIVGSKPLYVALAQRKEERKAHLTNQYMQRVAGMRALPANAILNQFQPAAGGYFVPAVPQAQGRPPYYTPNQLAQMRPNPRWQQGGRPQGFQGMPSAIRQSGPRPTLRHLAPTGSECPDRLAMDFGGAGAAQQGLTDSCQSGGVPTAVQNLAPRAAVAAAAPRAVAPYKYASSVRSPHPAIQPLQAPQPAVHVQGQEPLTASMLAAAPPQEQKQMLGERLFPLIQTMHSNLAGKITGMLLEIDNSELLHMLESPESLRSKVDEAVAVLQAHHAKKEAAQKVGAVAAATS
UniProt Q9H0N5: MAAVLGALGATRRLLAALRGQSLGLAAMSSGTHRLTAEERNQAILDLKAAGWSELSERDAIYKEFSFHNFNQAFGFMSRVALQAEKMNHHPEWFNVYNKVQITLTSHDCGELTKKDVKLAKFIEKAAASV
UniProt Q9H2J4: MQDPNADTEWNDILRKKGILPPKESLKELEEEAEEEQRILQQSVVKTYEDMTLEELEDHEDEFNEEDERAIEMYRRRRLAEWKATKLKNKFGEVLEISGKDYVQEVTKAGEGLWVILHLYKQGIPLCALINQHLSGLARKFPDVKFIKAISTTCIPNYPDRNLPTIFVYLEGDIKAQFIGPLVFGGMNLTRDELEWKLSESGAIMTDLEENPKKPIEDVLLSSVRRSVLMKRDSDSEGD
UniProt P50479: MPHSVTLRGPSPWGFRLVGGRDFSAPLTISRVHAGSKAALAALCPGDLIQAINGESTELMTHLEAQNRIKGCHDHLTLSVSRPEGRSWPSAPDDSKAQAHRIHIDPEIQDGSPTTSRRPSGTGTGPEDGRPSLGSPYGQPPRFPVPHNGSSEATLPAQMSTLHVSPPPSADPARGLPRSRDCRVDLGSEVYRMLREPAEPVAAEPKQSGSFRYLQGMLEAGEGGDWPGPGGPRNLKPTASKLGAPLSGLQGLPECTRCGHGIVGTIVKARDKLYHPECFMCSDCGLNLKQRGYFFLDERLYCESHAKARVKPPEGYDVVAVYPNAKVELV
UniProt P12004, whole entry, looked up: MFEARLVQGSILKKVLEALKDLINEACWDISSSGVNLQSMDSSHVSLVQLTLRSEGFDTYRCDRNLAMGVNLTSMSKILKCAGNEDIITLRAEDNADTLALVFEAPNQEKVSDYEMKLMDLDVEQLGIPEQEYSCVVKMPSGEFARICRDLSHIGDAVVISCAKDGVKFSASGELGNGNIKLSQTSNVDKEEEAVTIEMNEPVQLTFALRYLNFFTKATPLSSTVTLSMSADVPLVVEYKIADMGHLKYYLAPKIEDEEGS

Compound in this experiment: CC(C)N(C[C@H]1O[C@@H](n2cnc3c(N)ncnc32)[C@H](O)[C@@H]1O)[C@H]1C[C@@H](CCc2nc3cc(C(C)(C)C)ccc3[nH]2)C1 [pinometostat]
Kind of experiment: log2 fold change, soluble protein after heating vs DMSO (PISA); higher = thermal stabilisation; K562 cells, 10 uM, 30 min; active = over 0.2 and 3.5 SD of the protein, either way, in both replicates (recomputed). The procedure, abridged:
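Soluble protein was defined as the supernatant after 21,000xg for 90 min. It came from K562 cells at 2×10^6 cells/mL given 10 μM compound for 30 min, heated in aliquots for 3 min across 48°C-58°C, pooled, and extracted in PBS with 0.5% NP-40 at 4°C, and was quantified by TMTpro 16plex LC-MS/MS with equalised channel sums. Thermal stability against control samples, from duplicates, is reported as log2 fold change.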
Take PCYOX1 (UniProt Q9UHG3): the log2 fold change is inactive: -0.044.
Next, PDCL (UniProt Q13371): inactive: 0.003.
Next, PDCD5 (UniProt O14737): inactive: -0.064; PAGR1 (UniProt Q9BTK6): inactive: -0.04.
Next, PDCD11 (UniProt Q14690): inactive: -0.039; PDSS1 (UniProt Q5T2R2): inactive: -0.01; PAK3 isoform 3 (UniProt O75914): inactive: 0.004.
Regarding PAIP2 (UniProt Q9BPZ3), the log2 fold change is inactive: 0.135.
PDF (UniProt Q9HBH1): the log2 fold change was inactive: -0.007.
The value for PANX1 (UniProt Q96RD7) was inactive: -0.005; that for PDHX (UniProt O00330) was inactive: 0.002.
The value for PDHB (UniProt P11177) was inactive: 0.111; that for PAK2 (UniProt Q13177) was inactive: -0.039.
Next, PEX14 (UniProt O75381): inactive: -0.045; PASK (UniProt Q96RG2): inactive: 0.008; PCSK9 (UniProt Q8NBP7): inactive: 0.048.
For the target PAPSS1 (UniProt O43252), the log2 fold change was inactive: -0.012.
The value for PDIA4 (UniProt P13667) was inactive: 0.027; that for PABPC4 isoform 3 (UniProt Q13310) was inactive: 0.058; that for PCBD2 (UniProt Q9H0N5) was inactive: -0.056.
The value for PDCL3 (UniProt Q9H2J4) was inactive: -0.016; that for PDLIM4 (UniProt P50479) was inactive: -0.004; that for PCNA (UniProt P12004) was inactive: -0.055.

The values above are taken from the supplement of paper PMC10849652.
